This experiment addresses T1, angiotensin-I-converting enzyme (UniProt P12822 34-1260).
T1 sequence (looked up): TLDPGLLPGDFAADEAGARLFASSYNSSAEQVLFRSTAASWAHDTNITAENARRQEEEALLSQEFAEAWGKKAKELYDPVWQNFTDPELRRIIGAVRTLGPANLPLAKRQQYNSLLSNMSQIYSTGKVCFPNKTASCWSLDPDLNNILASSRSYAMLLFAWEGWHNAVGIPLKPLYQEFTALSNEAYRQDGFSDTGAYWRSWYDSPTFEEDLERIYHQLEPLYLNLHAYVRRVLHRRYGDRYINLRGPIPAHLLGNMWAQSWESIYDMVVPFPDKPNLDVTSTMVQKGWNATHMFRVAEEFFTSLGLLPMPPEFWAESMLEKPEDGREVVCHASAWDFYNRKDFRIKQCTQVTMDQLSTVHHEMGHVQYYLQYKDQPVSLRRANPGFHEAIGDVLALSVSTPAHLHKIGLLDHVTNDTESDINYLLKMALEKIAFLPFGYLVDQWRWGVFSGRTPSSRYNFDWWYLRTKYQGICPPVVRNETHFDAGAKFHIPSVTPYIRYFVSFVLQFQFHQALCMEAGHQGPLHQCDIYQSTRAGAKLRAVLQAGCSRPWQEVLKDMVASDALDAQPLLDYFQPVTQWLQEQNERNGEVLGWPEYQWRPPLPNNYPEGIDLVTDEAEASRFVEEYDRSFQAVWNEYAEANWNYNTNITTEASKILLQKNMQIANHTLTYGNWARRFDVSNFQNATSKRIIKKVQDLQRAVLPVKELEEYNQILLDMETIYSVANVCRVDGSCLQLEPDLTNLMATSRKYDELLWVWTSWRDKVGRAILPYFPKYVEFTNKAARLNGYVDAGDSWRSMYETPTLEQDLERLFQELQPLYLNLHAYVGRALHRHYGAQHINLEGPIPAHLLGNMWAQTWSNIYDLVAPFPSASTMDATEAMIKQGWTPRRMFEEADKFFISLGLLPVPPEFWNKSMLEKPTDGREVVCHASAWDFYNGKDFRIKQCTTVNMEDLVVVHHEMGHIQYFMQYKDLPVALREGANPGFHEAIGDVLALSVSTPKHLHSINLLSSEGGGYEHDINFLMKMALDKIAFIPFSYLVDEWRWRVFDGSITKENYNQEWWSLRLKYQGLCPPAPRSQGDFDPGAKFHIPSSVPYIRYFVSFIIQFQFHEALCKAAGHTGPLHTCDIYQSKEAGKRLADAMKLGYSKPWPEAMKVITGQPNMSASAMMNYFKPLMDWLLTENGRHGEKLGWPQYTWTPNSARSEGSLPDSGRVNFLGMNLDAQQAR
Description: affinity purification with mass spectrometry; ACE covalently immobilised on CNBr-activated Sepharose 4B; T. flavidus hydrolysate (<1 kDa) loaded in 50 mmol/L Tris-HCl pH 7.4, washed, eluted with 1 mol/L NaCl; eluate sequenced de novo by LC-MS/MS (ALC >= 80%); only the target purified.

Consider 19 molecules from publication PMC10608451, “Affinity Purification and Molecular Characterization of Angiotensin-Converting Enzyme (ACE)-Inhibitory Peptides from Takifugu flavidus” (Marine Drugs, 2023).

These are yes or no findings as the source states them, for the method shown. Binding seen in cells or lysates may run through a third protein. A yes stands for co-enrichment or nearness to the bait. Other partners may have been found.

B1: RSTGALAL (peptide)
peptide: RSTGALAL
As for B1, the binding result is “binds”.

B2: … (peptide)
peptide: NESNPDYLVR
In the case of B2, the binding result is recorded as “binds”.

B3: ELLVQN (peptide)
peptide: ELLVQN
On to B3, for which the binding result is recorded as “binds”.

B4: … (peptide)
peptide: NNLFDQSGTVK
Take B4: the binding entry was “binds”.

B5: TLFGL (peptide)
peptide: TLFGL
With B5, the binding entry is recorded as “binds”.

B6: TYPFPV (peptide)
peptide: TYPFPV
Regarding B6, the binding entry is “binds”.

B7: FAVET (peptide)
peptide: FAVET
For B7, the binding entry is reported as “binds”.

B8: FLPELT (peptide)
peptide: FLPELT
On to B8, for which the binding entry is listed as “binds”.

B9: … (peptide)
peptide: TCDKVQEVR
As to B9, the binding entry was “binds”.

B10: TSTPTKVL (peptide)
peptide: TSTPTKVL
With B10, the binding entry is reported as “binds”.

B11: … (peptide)
peptide: SGVGDGDLPELT
In the case of B11, the binding entry is listed as “binds”.

B12: … (peptide)
peptide: KDVDVLDSVL
For B12, the binding result was “binds”.

B13: ELALQ (peptide)
peptide: ELALQ
Take B13: the binding entry is on record as “binds”.

B14: LLGGGA (peptide)
peptide: LLGGGA
Regarding B14, the binding entry is recorded as “binds”.

B15: DVFRVT (peptide)
peptide: DVFRVT
With B15, the binding result was “binds”.

B16: TLRFALHGME (peptide)
peptide: TLRFALHGME
notes: source: Takifugu flavidus skin hydrolysate (alcalase, <1 kDa fraction); also synthetic peptide (Fmoc solid phase, Genscript)
Regarding B16, the binding result is recorded as “binds”.

B17: … (peptide)
peptide: SATVPDPLPVVN
With B17, the binding result is listed as “binds”.

B18: HPPLQ (peptide)
peptide: HPPLQ
On to B18, for which the binding result is given as “binds”.

B19: TFTGA (peptide)
peptide: TFTGA
For the molecule B19, the binding entry is listed as “binds”.
